Consider five sequences from patent publication US20080292576A1, “METHOD FOR IDENTIFYING HAIR CONDITIONER-RESISTANT HAIR-BINDING PEPTIDES AND HAIR BENEFIT AGENTS THEREFROM” (E.I. du Pont de Nemours and Co., priority 2005, published 2008).

A short description of this data set: Biopanning of phage display peptide libraries against hair with undiluted hair conditioner incubation. The data set is classed as binding, human. The conditions noted are these: number of identical sequences out of 95 random sequenced clones after the third biopanning round; undiluted Dove Extra Volume Conditioner. The method, then:
A sample containing approximately 4×10^10 pfu of the phage from the library of interest was used in each experiment. The sample of the phage library was first pretreated to remove skin and plastic-binding clones. To remove skin-binding clones, the sample of the phage library was incubated for 1 h at room temperature with a sample of pig skin in a unique pig skin-bottom 96-well apparatus, which was created by applying one layer of Parafilm under the top 96-well block of a Minifold I Dot-Blot System (Schleicher & Schuell, Inc., Keene, N.H.), adding a layer of hairless pig skin on top of the Parafilm® cover, and then tightening the apparatus. The pig skin was purchased from a local supermarket and stored at −80° C. Before use, the skin was placed in deionized water to thaw, and then blotted dry using a paper towel. The surface of the skin was wiped with 90% isopropanol, and then rinsed with deionized water. After exposure to the pig skin, the phage sample was transferred to a polystyrene, 6-well cell culture cluster (Corning Inc., Acton, Mass.; Cat. No. 3526) and incubated for 1 h at room temperature to remove plastic-binding clones.
The hair samples used were 6-inch (15 cm) long pieces of medium brown human hairs, obtained from International Hair Importers and Products (Bellerose, N.Y.). The hairs were placed in 90% isopropanol for 30 min at room temperature and then washed 5 times for 10 min each with deionized water. The hairs were air-dried overnight at room temperature. The hairs were cut to a length of 1 cm and 10-20 hairs were placed into a microcentrifuge tube.
The phage sample, pretreated as described above to remove skin and plastic-binding clones, was added to the tube containing the hair sample and the mixture was incubated at room temperature for 1 h. The phage solution was removed and the hair sample was incubated in undiluted hair conditioner (Dove® Extra Volume Conditioner; Unilever, obtained from a local supermarket) for 5 min at room temperature. The hairs were then washed six times with TBST-0.5% buffer. After the washes, the hairs were transferred to a new tube, elution buffer, consisting of 1 mg/mL BSA in 0.2 M glycine-HCl, pH 2.2, was added, and the hair was incubated for 10 min. Then, neutralization buffer consisting of 1 M Tris-HCl, pH 9.2, was added to the tube. The phages that were eluted and those still bound to the hairs were amplified by adding fresh host cells (E. coli ER2338). The amplified and isolated phage was contacted with a fresh hair sample and the biopanning procedure was repeated two more times for each library.
After the third biopanning round, random single phage clones were selected and single plaque lysates were prepared following the manufacture's instructions (New England Biolabs) and the single stranded phage genomic DNA was purified using the QIAprep Spin M13 Kit (Qiagen; Valencia, Calif.) and sequenced at the DuPont Sequencing Facility using −96 gill sequencing primer (5′-[…]-3′), given as SEQ ID NO:7. […] The amino acid sequences of the hair conditioner-resistant, hair-binding phage-peptides, identified from the three phage libraries after three biopanning rounds, are given in Table 1.
Turning to “HHGTHHNATKQKNHV (Hair conditioner-resistant hair-binding peptide) [HCP.5]”, the Frequency was found to be 36.

“QQHKVHHQNPDRSTQDAHHS (Hair conditioner-resistant hair-binding peptide) [HCP.2]” gave a Frequency of 15. To “STLHKYKSQDPTPHH (Hair conditioner-resistant hair-binding peptide) [HCP.6]” belongs 17; to “SVSVGMKPSPRP (Hair conditioner-resistant hair-binding peptide) [HCP.9]”, 16. To “THSTHNHGSPRHTNADAGNP (Hair conditioner-resistant hair-binding peptide) [HCP.1]” belongs 39.
